Laboratory results as given in patent US7531356B2, “Promoter sequences for corticotropin releasing-factor receptor CRF2α and method of identifying agents that alter the activity of the promoter sequences” (Wisconsin Alumni Research Foundation, priority 2000, dated 2009).
At least one structure is not confirmed: it was looked up by name or label, or the drawing left a doubt.

Legend:
Type in all cases: cell-based, human
[1] = system: full-length CRF2α receptor promoter (−3898 construct); assay: Luciferase reporter expression from the full-length (−3898) CRF2α receptor promoter construct in transfected CHO-K1 cultures; settings: CHO-K1, −3898 construct; CRF, urocortin, dexamethasone 1 μM, forskolin 10 μM without IBMX; 24 hours; vs untreated (CRF, urocortin) or DMSO control
Experimental: (§1) In one embodiment, the present invention is a transfected cell line. One preferred method of creating such a cell line is described as follows: The constructs described above containing the human or rat promoter fragments placed upstream of the firefly luciferase gene are used to transfect immortalized cell lines. The constructs are transfected into CHO-K1 and A7R5 cell lines using lipofectamine 2000 (Life Technologies, Rockville, Md.). […] Both cell lines can be maintained at 37° C. with 5% CO2 in DMEM supplemented with 10% fetal bovine serum. Primary cultures of the central nervous system, as well as additional immortalized cell lines, are also appropriate for these transfections. To control for transfection efficiency, the cells are also co-transfected with the pRL-TK vector (Promega, Madison, Wis.). The pRL-TK vector contains the Renilla luciferase gene downstream of the herpes simplex virus thymidine kinase promoter, a promoter which provides low to moderate levels of expression. Cell lysates are assayed for total protein using the BCA assay (Pierce, Rockford, Ill.) to standardize for the protein extraction. The level of reporter gene expression from a standardized amount of cell extract is quantified by measuring luciferase activity using a luminometer (EG&G Wallac, Gaithersburg, Md.) and the dual-luciferase reporter assay system (Promega, Madison, Wis.). […]

[2] = system: full-length CRF2α receptor promoter (−3898 construct); assay: Luciferase reporter expression from the full-length (−3898) CRF2α receptor promoter construct in transfected A7R5 cultures; settings: separate experiment, p<0.001
Experimental: as §1

[3] = system: CRF2α receptor promoter fragments; assay: Forskolin-induced luciferase expression from truncated CRF2α receptor promoter fragments in CHO-K1 cultures; settings: forskolin 10 μM with IBMX 0.25 mM, 24 hours

| SMILES | change in expression from the full-length CRF2α promoter compared with control cultures [1] | change in expression compared with DMSO control cultures [2] | forskolin-induced change in expression vs respective vehicle control, all other constructs ([3]; constructs other than −840, −346, −295) | forskolin-induced change in expression vs respective vehicle control, −840, −346 and −295 constructs ([3]; p<0.001) |
| --- | --- | --- | --- | --- |
| C[C@@H]1C[C@H]2[C@@H]3CCC4=CC(=O)C=C[C@]4(C)[C@@]3(F)[C@@H](O)C[C@]2(C)[C@@]1(O)C(=O)CO [dexamethasone] | does not appear to alter expression | significantly reduced expression | – | – |
| C=C[C@@]1(C)CC(=O)[C@]2(O)[C@@]3(C)[C@@H](O)CCC(C)(C)[C@@H]3[C@H](O)[C@H](OC(C)=O)[C@@]2(C)O1 [forskolin] | significantly lowers expression | significantly reduced expression | did not show a significant forskolin-induced change in expression | significant forskolin-induced increase in expression |
